Results are given in words; binding and its absence hold for the method and conditions named. In cells and extracts the contact can be indirect. A yes stands for co-enrichment or nearness to the bait. Other partners may have been found.

Protein sequences, listed by entry. Tags and fused reporters are not part of them.
UniProt Q15717: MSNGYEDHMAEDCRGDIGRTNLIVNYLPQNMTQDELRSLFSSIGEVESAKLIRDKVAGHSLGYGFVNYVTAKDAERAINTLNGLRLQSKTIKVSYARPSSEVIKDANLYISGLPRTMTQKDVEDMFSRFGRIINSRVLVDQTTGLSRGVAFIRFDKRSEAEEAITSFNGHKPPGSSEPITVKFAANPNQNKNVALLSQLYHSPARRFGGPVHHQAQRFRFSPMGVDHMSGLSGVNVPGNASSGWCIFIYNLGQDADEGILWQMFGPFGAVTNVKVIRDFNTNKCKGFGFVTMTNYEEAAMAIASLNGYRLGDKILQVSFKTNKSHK

For the assay, the target named is Hu protein R (HuR RNA binding protein) (human (endogenous in Jurkat and primary human T cells)) (UniProt Q15717). In words: affinity purification with mass spectrometry; HuR immunoprecipitate from Jurkat T cell lysates (anti-HuR antibody; isotype control MOPC-21), SDS-PAGE, gel slices by molecular weight range, trypsin digest, LC-MS/MS, Mascot search.

B1: fibrillarin (protein, UniProt P22087 1-321)
chain: MKPGFSPRGGGFGGRGGFGDRGGRGGRGGFGGGRGRGGGFRGRGRGGGGGGGGGGGGGRGGGGFHSGGNRGRGRGGKRGNQSGKNVMVEPHRHEGVFICRGKEDALVTKNLVPGESVYGEKRVSISEGDDKIEYRAWNPFRSKLAAAILGGVDQIHIKPGAKVLYLGAASGTTVSHVSDIVGPDGLVYAVEFSHRSGRDLINLAKKRTNIIPVIEDARHPHKYRMLIAMVDVIFADVAQPDQTRIVALNAHTFLRNGGHFVISIKANCIDSTASAEAVFASEVKKMQQENMKPQEQLTLEPYERDHAVVVGVYRPPPKVKN
As for B1, the binding entry was “binds”.

For the origin of these results see publication PMC6065199.
